Assay results published in patent US20040198809A1 (priority 2001, published 2004).
At least one compound was matched to its structure with a doubt left.

Tested on: primary care patients with major depression disorder
Assay: 8-week, double-blind, randomised, placebo-controlled, flexible-dose clinical study
Format: in vivo
Settings: observed cases, from Week 1 (p<0.05) onwards, 4-week period

CN(C)CCCC1(c2ccc(F)cc2)OCc2cc(C#N)ccc21 (racemic) [citalopram]
CGI improvement and severity subscale versus placebo: not statistically different from placebo
